Results on 6 molecules are retold here after article PMC11212424.

Chains of the proteins cited; added tags and fusions are not shown.
UniProt Q2EJA0: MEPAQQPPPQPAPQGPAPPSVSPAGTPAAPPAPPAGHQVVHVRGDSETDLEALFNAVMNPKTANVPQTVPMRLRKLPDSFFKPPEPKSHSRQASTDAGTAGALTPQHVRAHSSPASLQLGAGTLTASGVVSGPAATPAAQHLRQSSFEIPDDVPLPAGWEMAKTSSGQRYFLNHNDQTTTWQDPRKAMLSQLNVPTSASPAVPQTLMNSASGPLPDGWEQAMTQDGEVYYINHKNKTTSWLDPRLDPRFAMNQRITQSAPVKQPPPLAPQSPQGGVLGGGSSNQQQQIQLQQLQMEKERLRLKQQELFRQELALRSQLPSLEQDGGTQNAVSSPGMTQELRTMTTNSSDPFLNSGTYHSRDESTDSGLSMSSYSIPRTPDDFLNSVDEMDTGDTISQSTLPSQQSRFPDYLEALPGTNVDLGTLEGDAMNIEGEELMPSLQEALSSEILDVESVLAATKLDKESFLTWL
UniProt P46938: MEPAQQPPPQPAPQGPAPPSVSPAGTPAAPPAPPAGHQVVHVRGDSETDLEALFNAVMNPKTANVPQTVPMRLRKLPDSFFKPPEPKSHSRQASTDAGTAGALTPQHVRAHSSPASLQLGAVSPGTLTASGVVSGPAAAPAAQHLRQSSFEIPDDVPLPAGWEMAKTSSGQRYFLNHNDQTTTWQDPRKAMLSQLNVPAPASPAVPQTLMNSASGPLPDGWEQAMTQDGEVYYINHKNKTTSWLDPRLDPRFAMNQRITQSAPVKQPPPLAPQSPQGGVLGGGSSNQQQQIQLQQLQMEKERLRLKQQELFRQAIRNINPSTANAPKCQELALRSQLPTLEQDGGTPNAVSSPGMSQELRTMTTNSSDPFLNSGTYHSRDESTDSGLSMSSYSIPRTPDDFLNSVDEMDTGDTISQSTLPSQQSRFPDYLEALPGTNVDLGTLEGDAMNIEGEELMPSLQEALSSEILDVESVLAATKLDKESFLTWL

Test [1] addresses T1, Flag-Tudor-SN (Tudor staphylococcal nuclease) (UniProt Q66X93).
T1 sequence: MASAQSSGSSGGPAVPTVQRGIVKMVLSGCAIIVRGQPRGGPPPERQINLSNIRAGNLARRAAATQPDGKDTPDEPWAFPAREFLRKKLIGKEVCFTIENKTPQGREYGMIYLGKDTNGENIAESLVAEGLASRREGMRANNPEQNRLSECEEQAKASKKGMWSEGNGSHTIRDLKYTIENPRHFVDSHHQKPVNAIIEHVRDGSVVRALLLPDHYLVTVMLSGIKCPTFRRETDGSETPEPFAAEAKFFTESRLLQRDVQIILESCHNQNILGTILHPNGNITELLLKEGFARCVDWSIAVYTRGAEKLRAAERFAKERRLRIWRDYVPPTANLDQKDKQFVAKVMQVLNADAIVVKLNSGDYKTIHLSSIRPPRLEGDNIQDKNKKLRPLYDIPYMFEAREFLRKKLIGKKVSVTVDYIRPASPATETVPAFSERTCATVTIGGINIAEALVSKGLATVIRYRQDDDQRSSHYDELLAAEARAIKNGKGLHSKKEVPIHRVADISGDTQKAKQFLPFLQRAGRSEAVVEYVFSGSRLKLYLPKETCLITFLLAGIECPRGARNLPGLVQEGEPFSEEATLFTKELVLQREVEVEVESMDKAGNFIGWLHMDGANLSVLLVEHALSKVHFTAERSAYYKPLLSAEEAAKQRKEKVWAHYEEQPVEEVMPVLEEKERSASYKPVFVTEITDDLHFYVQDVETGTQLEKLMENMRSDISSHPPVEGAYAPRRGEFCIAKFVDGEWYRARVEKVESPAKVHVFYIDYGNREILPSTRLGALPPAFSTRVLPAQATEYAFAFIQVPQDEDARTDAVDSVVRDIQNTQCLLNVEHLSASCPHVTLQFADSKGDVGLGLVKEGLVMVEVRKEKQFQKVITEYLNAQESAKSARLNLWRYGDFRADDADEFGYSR
Description: co-IP; total lysates of H9c2 cells expressing Flag-Tudor-SN or Flag-YAP, precipitated with anti-Flag beads; western blot for YAP or Tudor-SN. (In general: Immunoblotting shows a protein as a band on a membrane.)

The target in test [2] is T2, Tudor-SN, endogenous in mouse myocardia (mouse (endogenous in myocardia)) (UniProt Q78PY7).
T2 sequence: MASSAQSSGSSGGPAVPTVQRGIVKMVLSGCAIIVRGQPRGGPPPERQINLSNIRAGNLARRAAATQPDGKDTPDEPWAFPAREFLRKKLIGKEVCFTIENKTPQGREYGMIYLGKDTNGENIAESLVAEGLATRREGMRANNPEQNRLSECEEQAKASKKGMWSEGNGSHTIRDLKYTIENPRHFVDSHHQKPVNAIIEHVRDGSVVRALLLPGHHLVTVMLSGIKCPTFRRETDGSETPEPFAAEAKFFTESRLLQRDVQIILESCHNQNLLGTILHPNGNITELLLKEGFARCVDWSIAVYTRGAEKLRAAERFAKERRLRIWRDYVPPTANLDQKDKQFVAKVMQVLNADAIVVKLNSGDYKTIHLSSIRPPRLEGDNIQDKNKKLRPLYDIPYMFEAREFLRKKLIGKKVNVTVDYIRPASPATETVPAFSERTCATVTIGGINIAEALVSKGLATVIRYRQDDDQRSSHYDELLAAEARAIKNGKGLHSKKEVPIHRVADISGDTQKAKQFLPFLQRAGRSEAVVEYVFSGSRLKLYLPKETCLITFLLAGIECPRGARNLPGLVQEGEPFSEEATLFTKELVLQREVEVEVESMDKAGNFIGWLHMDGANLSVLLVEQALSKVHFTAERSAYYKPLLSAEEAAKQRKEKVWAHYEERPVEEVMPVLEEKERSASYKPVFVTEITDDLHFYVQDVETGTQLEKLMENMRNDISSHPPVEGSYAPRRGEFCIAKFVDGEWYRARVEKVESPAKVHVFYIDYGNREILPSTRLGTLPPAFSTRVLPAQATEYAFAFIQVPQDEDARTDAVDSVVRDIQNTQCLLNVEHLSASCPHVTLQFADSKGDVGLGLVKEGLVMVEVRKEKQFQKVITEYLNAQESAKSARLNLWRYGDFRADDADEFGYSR
Description: co-IP; lysates of P1 mouse myocardia (WT, TG, Tudor-SN fl/fl, Myh6-Tudor-SN -/-); anti-Tudor-SN or anti-YAP antibody on protein A/G agarose, NP-40 lysis buffer with 150 mM NaCl, 2 mM EDTA, 50 mM Tris-HCl pH 8.0; western blot.

Test [3] addresses T3, GST-Tudor-SN (full-length Tudor-SN) (UniProt Q66X93).
T3 sequence: T1 sequence
Description: pull-down; GST fusion proteins from E. coli held on glutathione-agarose beads, incubated 12 h with in vitro transcribed/translated product (rabbit reticulocyte lysate); western blot; only the target purified.

The target in a further test is Flag-YAP (UniProt Q2EJA0). The test is described as follows: co-IP; total lysates of H9c2 cells expressing Flag-Tudor-SN or Flag-YAP, precipitated with anti-Flag beads; western blot for YAP or Tudor-SN.
In test [4] the target is GST-YAP (full-length YAP) (UniProt Q2EJA0). The test is described as follows: pull-down; GST fusion proteins from E. coli held on glutathione-agarose beads, incubated 12 h with in vitro transcribed/translated product (rabbit reticulocyte lysate); western blot; only the target purified.
Test [5] deals with Yes-associated protein (YAP), endogenous in mouse myocardia (mouse (endogenous in myocardia)) (UniProt P46938). Description: co-IP; lysates of P1 mouse myocardia (WT, TG, Tudor-SN fl/fl, Myh6-Tudor-SN -/-); anti-Tudor-SN or anti-YAP antibody on protein A/G agarose, NP-40 lysis buffer with 150 mM NaCl, 2 mM EDTA, 50 mM Tris-HCl pH 8.0; western blot.

Results are given in words; binding and its absence hold for the method and conditions named. Binding seen in cells or lysates may run through a third protein. Some results given as binding are weak or reduced against the parent protein; the word gives no strength. For part of these data: Where a sequence is shown, tags or fusion partners need not be part of it.

As for “Yes-associated protein (YAP), endogenous in H9c2 cells (from UniProt Q2EJA0 1-469)”, the binding result in test [1] is “binds”.

Consider “Yes-associated protein (YAP), endogenous in mouse myocardia (from UniProt P46938 1-488)”, for which, in test [2], the binding entry is recorded as “binds”.

With “in vitro-translated YAP (from UniProt Q2EJA0 1-469)”, the binding entry in test [3] is recorded as “binds”.

B1: Tudor-SN, endogenous in H9c2 cells (protein, UniProt Q66X93 1-909)
chain: T1 sequence
For B1, the binding result with Flag-YAP is “binds”.

B2: in vitro-translated Tudor-SN (protein, UniProt Q66X93 1-909)
chain: T1 sequence
Regarding B2, in test [4], the binding entry is “binds”.

B3: Tudor-SN, endogenous in mouse myocardia (protein, UniProt Q78PY7 1-910)
chain: T2 sequence
Turning to B3, the binding entry in test [5] is recorded as “binds”.
